Drawing on the supplement of paper PMC12819154, “High-throughput peptide-centric local stability assay extends protein–ligand identification to membrane proteins, tissues and bacteria” (Nature Structural & Molecular Biology, 2025), this text covers log2 fold change for 26 targets.

Chains of the proteins cited; added tags and fusions are not shown. Lines headed by an entry give the natural chain unless they say otherwise; changes in a name come on top.
UniProt Q9H3J6: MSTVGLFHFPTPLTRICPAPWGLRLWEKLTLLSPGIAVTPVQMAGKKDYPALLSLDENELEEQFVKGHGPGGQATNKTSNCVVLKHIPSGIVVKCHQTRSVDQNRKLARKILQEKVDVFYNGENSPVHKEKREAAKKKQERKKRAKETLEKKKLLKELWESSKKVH
UniProt Q9H9L7: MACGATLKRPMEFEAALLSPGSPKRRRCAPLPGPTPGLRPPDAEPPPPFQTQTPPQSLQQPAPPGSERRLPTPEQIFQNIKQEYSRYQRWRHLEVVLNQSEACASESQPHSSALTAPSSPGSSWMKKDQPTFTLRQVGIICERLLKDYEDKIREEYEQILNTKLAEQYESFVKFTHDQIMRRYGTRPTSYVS
UniProt Q9HCH0: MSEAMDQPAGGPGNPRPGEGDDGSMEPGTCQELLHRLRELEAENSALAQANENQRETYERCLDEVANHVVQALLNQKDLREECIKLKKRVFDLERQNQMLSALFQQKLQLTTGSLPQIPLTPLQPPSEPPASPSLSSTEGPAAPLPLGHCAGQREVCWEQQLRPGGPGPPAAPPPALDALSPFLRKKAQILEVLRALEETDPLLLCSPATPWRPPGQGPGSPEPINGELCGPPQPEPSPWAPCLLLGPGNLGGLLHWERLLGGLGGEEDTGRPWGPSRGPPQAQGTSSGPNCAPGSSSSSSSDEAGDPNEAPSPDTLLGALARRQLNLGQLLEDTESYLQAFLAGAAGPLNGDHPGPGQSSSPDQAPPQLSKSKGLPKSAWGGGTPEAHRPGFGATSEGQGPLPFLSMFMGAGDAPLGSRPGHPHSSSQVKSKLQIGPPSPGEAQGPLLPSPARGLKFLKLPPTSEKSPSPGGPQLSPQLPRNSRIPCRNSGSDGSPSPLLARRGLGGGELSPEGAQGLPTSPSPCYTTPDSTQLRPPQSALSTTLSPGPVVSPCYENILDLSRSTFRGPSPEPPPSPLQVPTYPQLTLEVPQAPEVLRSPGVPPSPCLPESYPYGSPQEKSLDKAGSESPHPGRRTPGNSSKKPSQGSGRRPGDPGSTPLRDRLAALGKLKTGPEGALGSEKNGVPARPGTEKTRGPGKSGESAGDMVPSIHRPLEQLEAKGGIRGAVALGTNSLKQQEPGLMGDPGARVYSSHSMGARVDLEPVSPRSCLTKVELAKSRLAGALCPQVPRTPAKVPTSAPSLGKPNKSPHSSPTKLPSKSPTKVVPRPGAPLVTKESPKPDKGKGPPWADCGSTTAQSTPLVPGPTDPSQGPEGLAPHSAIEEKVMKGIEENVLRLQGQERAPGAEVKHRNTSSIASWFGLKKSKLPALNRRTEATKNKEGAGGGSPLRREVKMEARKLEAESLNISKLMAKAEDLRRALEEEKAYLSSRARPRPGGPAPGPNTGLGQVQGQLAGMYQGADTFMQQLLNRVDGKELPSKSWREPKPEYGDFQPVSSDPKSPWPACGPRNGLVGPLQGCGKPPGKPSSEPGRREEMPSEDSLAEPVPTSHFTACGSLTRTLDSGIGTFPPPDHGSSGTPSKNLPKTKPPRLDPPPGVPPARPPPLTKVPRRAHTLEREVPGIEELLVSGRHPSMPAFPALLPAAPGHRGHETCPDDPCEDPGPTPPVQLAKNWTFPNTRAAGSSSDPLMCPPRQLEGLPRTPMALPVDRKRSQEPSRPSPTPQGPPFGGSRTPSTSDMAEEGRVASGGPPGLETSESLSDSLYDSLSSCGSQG
UniProt Q9H9H4: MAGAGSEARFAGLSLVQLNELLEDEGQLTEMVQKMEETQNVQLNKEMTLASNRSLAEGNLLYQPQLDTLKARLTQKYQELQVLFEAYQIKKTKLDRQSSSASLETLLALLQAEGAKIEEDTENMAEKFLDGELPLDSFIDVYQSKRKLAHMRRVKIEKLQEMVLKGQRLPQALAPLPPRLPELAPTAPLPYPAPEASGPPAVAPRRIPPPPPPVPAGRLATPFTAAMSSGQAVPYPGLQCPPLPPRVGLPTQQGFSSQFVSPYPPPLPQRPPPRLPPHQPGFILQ
UniProt Q9H2K8: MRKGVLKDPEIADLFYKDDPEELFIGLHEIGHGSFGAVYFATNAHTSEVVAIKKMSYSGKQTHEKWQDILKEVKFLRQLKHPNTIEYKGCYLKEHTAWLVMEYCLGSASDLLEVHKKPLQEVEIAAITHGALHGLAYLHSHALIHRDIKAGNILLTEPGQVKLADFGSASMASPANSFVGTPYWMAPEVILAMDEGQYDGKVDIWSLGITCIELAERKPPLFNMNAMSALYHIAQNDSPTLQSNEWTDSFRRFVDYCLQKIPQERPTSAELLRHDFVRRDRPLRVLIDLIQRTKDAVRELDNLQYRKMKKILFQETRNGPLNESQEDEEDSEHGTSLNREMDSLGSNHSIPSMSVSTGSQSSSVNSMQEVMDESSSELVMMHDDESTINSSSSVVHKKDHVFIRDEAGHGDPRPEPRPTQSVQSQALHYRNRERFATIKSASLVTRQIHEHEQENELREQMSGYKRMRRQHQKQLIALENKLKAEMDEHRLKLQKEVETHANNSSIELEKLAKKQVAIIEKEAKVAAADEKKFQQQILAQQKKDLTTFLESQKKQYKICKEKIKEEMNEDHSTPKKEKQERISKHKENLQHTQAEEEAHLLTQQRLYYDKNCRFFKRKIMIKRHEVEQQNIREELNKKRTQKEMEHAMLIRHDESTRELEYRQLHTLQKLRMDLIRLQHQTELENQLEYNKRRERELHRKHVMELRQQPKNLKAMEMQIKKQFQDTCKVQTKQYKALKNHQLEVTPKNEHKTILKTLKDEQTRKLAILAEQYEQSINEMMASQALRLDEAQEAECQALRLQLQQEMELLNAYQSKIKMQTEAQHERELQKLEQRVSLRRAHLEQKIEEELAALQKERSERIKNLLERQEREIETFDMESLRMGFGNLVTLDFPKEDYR
UniProt Q9H4I8: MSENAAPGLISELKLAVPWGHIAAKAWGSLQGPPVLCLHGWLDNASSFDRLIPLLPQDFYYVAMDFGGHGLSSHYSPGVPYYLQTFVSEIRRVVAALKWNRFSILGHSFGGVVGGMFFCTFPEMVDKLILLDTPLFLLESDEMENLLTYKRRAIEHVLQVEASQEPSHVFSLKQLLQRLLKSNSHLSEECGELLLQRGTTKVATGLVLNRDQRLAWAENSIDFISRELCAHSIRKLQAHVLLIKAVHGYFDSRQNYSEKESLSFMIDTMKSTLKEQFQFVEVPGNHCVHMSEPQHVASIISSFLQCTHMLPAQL
UniProt Q9H2M9: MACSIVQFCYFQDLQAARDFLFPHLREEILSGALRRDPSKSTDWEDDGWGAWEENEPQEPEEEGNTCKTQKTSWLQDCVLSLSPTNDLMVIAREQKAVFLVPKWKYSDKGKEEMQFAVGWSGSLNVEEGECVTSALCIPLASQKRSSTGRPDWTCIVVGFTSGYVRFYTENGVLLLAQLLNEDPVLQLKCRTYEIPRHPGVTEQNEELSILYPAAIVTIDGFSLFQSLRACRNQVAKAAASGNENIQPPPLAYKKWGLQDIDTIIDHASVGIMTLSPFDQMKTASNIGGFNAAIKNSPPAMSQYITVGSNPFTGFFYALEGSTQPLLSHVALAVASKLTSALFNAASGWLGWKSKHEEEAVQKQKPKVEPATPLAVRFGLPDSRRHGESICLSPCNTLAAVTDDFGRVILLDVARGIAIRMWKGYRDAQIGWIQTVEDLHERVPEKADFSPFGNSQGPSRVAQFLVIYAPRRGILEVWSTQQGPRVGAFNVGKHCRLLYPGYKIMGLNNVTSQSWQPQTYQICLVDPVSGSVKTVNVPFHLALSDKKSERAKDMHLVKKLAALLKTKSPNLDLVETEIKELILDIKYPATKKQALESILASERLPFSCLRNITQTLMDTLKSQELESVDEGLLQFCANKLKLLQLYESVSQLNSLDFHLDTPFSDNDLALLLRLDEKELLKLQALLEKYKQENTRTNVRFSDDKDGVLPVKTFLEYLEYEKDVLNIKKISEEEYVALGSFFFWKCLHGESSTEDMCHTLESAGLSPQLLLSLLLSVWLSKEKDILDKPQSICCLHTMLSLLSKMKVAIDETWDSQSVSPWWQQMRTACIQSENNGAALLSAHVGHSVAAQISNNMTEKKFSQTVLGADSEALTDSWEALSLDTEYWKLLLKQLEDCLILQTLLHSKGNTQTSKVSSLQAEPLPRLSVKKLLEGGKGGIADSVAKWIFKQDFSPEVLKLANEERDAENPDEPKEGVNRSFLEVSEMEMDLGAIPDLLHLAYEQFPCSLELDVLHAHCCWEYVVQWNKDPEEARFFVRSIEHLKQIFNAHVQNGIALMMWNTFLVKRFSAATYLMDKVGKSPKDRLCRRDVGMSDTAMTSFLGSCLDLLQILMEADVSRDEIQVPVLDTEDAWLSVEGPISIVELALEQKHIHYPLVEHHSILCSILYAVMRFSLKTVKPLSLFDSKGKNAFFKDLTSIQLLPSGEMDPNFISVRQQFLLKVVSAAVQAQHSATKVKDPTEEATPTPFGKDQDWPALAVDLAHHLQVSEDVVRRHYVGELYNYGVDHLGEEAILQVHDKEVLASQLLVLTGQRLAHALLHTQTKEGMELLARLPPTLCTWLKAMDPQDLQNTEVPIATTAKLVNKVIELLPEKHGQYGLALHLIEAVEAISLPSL
UniProt Q9H9F9, whole entry: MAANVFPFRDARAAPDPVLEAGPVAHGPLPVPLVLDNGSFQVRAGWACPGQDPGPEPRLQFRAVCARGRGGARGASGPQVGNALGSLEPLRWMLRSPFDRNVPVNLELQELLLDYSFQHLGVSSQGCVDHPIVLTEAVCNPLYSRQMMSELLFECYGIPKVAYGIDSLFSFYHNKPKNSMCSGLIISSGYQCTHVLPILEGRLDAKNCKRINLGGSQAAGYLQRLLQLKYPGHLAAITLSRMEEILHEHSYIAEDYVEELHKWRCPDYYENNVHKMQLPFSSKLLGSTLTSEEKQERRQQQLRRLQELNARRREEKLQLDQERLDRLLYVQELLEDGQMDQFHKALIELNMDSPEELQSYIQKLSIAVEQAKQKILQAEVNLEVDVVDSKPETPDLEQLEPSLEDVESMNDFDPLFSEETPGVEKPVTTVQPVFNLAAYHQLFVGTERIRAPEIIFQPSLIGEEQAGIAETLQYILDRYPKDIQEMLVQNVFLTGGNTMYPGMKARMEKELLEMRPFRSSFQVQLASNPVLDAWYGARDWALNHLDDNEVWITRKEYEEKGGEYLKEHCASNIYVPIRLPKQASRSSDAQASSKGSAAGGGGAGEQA
UniProt Q9H7X7: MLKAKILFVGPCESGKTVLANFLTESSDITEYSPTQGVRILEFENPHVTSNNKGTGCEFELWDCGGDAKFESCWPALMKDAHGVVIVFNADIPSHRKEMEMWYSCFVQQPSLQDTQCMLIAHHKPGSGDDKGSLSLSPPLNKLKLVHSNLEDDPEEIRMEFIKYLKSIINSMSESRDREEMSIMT
UniProt Q9H501: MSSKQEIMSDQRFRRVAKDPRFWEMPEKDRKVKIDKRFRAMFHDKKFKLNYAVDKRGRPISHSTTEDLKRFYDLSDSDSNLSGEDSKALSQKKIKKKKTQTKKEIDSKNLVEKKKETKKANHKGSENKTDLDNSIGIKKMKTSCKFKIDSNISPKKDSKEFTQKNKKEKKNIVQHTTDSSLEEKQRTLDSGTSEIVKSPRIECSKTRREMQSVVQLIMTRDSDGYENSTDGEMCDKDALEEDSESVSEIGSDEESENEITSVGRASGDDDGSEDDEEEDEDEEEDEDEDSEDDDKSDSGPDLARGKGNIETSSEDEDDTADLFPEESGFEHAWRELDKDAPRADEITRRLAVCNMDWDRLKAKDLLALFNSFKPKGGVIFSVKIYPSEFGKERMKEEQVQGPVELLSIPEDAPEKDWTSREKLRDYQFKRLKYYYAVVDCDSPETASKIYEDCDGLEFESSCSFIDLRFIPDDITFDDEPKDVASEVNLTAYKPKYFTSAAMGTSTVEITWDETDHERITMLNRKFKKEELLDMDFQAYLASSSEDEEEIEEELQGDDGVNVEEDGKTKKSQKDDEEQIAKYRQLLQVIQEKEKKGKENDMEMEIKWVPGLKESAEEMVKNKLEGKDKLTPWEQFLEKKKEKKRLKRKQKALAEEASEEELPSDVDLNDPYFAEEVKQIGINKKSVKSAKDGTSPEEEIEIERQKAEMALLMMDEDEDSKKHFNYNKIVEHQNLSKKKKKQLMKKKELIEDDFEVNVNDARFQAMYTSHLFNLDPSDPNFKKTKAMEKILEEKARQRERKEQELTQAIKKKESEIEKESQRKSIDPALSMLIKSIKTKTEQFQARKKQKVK
UniProt Q9H633: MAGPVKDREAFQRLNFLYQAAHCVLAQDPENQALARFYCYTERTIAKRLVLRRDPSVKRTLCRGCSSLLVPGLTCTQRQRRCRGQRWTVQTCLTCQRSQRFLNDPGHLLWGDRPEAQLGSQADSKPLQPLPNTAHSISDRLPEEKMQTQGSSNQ
UniProt Q9H9Z2: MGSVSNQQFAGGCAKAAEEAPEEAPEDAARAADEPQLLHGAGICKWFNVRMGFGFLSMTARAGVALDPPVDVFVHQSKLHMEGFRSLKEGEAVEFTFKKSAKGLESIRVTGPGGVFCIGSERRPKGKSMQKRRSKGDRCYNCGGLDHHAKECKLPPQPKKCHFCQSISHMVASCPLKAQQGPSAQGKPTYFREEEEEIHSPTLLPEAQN

This is one part of the list. Small differences around the control level are noise.

Compound in the assay: Cc1nc(Nc2ncc(C(=O)Nc3c(C)cccc3Cl)s2)cc(N2CCN(CCO)CC2)n1 [dasatinib]
The experiment in a line: log2 fold change of tryptic peptide abundance, ligand vs vehicle (limited proteolysis) (log2 ratio); higher = more trypsin-susceptible (destabilized). To be noted: ligand concentration: 5 uM; sample: K562 cleared lysate.
Consider “DHX33 (peptide sequence: FDDVTSEDTR, peptide start residue: 157) (UniProt Q9H6R0)”, for which the log2 fold change was 0.201.

Turning to “C12orf65 (peptide sequence: VDVFYNGENSPVHKEK, peptide start residue: 116) (UniProt Q9H3J6)”, the log2 fold change is 0.216.

For “PSTPIP2 (peptide sequence: RGPLPIPK, peptide start residue: 308) (UniProt Q9H939)”, the log2 fold change was -0.117.

On to “SP110 (peptide sequence: LQVVDKVTQR, peptide start residue: 389) (UniProt Q9HB58)”, for which the log2 fold change is -0.75.

As to “AKIRIN1 (peptide sequence: RLPTPEQIFQNIK, peptide start residue: 69) (UniProt Q9H9L7)”, the log2 fold change came to 0.821.

For the target “PEAK1 (peptide sequence: LIVSNFSQAK, peptide start residue: 1551) (UniProt Q9H792)”, the log2 fold change is -0.218.

For the target “UniProt Q9HCH0 (peptide sequence: AGSESPHPGR, peptide start residue: 626)”, the log2 fold change is -0.45.

In the case of “UniProt Q9HAQ2 (peptide sequence: INLVDLAGSER, peptide start residue: 249)”, the log2 fold change amounted to 0.0104.

Turning to “RPAP3 (peptide sequence: QNVVKPIDNPPHPGSTKPLK, peptide start residue: 414) (UniProt Q9H6T3)”, the log2 fold change was -0.842.

In the case of “GHITM (peptide sequence: EAALEPSMEK, peptide start residue: 64) (UniProt Q9H3K2)”, the log2 fold change was found to be 0.159.

In the case of “PLEKHA2 (peptide sequence: YFLQANDQK, peptide start residue: 91) (UniProt Q9HB19)”, the log2 fold change was determined as 0.289.

Regarding “VPS37B (peptide sequence: RIPPPPPPVPAGR, peptide start residue: 206) (UniProt Q9H9H4)”, the log2 fold change was -0.176.

Take “TAOK3 (peptide sequence: QLKHPNTIEYK, peptide start residue: 78) (UniProt Q9H2K8)”: the log2 fold change is -1.06.

In the case of “UniProt Q9H4I8 (peptide sequence: SNSHLSEECGELLLQR, peptide start residue: 182)”, the log2 fold change was -0.283.

“RAB3GAP2 (peptide sequence: KQALESILASERLPFSCLR, peptide start residue: 592) (UniProt Q9H2M9)”: the log2 fold change was -0.168.

In the case of “VPS16 (peptide sequence: DLYNQDDNHQELGSFHIR, peptide start residue: 618) (UniProt Q9H269)”, the log2 fold change was found to be 0.426.

Consider “LRRC40 (peptide sequence: LTFLDLR, peptide start residue: 474) (UniProt Q9H9A6)”, for which the log2 fold change was -0.389.

“ACTR5 (peptide sequence: LSIAVEQAK, peptide start residue: 364) (UniProt Q9H9F9)”: the log2 fold change was found to be 0.214.

As to “UniProt Q9H7X7 (peptide sequence: LVHSNLEDDPEEIR, peptide start residue: 145)”, the log2 fold change stood at 0.0997.

Regarding “ADNP (peptide sequence: SLNGAVPLGSNAR, peptide start residue: 204) (UniProt Q9H2P0)”, the log2 fold change worked out at 0.111.

For “COPS7B (peptide sequence: HLTIVSLASR, peptide start residue: 98) (UniProt Q9H9Q2)”, the log2 fold change was -0.213.

Turning to “ESF1 (peptide sequence: IVEHQNLSKK, peptide start residue: 728) (UniProt Q9H501)”, the log2 fold change is 0.815.

Take “UPF2 (peptide sequence: AFVPAILFK, peptide start residue: 476) (UniProt Q9HAU5)”: the log2 fold change was -0.26.

For the target “RPP21 (peptide sequence: FYCYTER, peptide start residue: 37) (UniProt Q9H633)”, the log2 fold change came out at 0.193.

Turning to “LIN28A (peptide sequence: CYNCGGLDHHAK, peptide start residue: 129) (UniProt Q9H9Z2)”, the log2 fold change stood at 0.24.

Regarding “USP42 (peptide sequence: VTSLETVAQFR, peptide start residue: 1261) (UniProt Q9H9J4)”, the log2 fold change was -0.5.
